Binding data for five substances are collected here from publication PMC7393113.

Sequences of proteins named here, by UniProt entry; tags and fusion partners are left off. A change or cut given only in a name is not applied to a line headed by its entry.
UniProt Q9Y4K3: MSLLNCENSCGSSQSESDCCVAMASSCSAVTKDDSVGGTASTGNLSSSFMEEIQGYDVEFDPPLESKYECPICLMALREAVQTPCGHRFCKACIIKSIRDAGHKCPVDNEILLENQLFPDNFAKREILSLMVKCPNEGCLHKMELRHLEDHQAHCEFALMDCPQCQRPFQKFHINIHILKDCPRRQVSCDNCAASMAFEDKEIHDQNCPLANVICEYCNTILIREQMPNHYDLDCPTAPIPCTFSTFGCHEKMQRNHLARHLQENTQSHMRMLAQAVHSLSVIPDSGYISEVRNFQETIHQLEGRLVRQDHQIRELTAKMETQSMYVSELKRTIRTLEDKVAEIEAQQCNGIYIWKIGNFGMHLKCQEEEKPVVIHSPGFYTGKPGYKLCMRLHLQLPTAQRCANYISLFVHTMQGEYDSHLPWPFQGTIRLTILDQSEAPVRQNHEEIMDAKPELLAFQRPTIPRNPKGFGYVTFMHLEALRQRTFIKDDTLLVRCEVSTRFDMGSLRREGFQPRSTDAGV
UniProt P40763: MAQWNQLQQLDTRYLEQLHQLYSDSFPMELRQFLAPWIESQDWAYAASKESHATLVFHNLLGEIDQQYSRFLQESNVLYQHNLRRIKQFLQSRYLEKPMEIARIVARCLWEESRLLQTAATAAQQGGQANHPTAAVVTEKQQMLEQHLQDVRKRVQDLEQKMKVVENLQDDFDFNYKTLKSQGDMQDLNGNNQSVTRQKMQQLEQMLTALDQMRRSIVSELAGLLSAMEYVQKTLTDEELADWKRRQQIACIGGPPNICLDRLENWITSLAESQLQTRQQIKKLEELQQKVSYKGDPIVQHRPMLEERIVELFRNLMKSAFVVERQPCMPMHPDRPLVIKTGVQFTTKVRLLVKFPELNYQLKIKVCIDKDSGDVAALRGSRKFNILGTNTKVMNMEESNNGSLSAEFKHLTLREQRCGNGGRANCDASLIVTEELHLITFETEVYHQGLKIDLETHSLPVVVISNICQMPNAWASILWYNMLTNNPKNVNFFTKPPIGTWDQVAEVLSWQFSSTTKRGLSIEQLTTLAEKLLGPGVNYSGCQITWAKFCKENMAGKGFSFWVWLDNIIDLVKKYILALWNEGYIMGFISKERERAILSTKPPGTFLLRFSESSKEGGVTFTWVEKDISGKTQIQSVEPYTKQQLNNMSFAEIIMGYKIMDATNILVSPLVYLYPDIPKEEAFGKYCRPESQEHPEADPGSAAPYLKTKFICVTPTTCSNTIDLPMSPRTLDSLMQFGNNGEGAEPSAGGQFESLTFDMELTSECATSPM

No constants are given. Whether binding was seen depends on the method and setting. Binding seen in cells or lysates may run through a third protein. Binding can be weak; no strength is given.

For this test, the target named is GST tagged TRAF6 C-domain (UniProt Q9Y4K3). Description: pull-down; GST-TRAF6 C-domain on glutathione agarose beads added to clarified lysate of transfected 293T cells; 4 C, 4 h; 50 mM Tris pH 7.4, 1.0% Triton X-100, 150 mM NaCl, 1 mM EDTA; blot with anti-FLAG; only the target purified.
As for “FLAG-tagged STAT3 E28A (from UniProt P40763)”, the binding result is reported as “binds”.

In the case of “FLAG-tagged STAT3 E28A E680A (from UniProt P40763)”, the binding result was “binds”.

With “FLAG-tagged STAT3 E100A (from UniProt P40763 1-770)”, the binding result was “no binding”.

For the substance “FLAG-tagged STAT3 E680A (from UniProt P40763 1-770)”, the binding entry is listed as “binds”.

In the case of “FLAG-tagged STAT3 (wild type) (from UniProt P40763 1-770)”, the binding entry is “binds”.
